Data: patent US4997648 (dated 1991)

Test: general procedure: solution-phase peptide synthesis; DppCl / NMM (mixed anhydride)
Settings: coupling step

Substance	step yield
Z-Nva-Sar-(Me)Leu-Val-(Me)Leu-Ala-D-Ala-(Me)Leu-(Me)Leu-(Me)Val-OBu^t	86%
H-L-Ala-D-Ala-(Me)Leu-(Me)Leu-(Me)Val-OBu^t	81%
Z-(Me)Thr-Abu-Sar-(Me)Leu-Val-(Me)Leu-Ala-D-Ala-(Me)Leu-(Me)Leu-(Me)Val-OH	75%
Z-D-Ala-(Me)Leu-(Me)Leu-(Me)Val-OBu^t	80%
H-(Me)Leu-Ala-D-Ala-(Me)Leu-(Me)Leu-(Me)Val-OBu^t	68%
Z-(Me)Leu-Ala-D-Ala-(Me)Leu-(Me)Leu-(Me)Val-Obu^t	92%
Z-Ala-D-Ala-(Me)Leu-(Me)Leu-(Me)Val-OBu^t	88%
Z-Nle-Sar-(Me)Leu-Val-(Me)Leu-Ala-D-Ala-(Me)Leu-(Me)Leu-(Me)Val-OBu^t	77%
Z-Abu-Sar-(Me)Leu-Val-(Me)Leu-Ala-D-Ala-(Me)Leu-(Me)Leu-(Me)Val-OBu^t	90%
Fmoc-(Me)Thr(Bu^t)-Abu-Sar-(Me)Leu-Val-(Me)Leu-Ala-D-Ala-(Me)Leu-(Me)Leu-(Me)Leu-(Me)Val-OBu^t	69%
Z-(Me)Ser(Bu^t)-Nva-Sar-(Me)Leu-Val-(Me)Leu-Ala-D-Ala-(Me)Leu-(Me)Leu-(Me)Val-OBu^t	73%
Z-(Me)Thr(Bu^t)-Abu-Sar-(Me)Leu-Val-(Me)Leu-Ala-D-Ala-(Me)Leu-(Me)Leu-(Me)Val-OBu^t	86%
Z-(Me)Thr(Bu^t)-Nva-Sar-(Me)Leu-Val-(Me)Leu-Ala-D-Ala-(Me)Leu-(Me)Leu-(Me)Val-OBu^t	65%
Z-(Me)Ser(Bu^t)-Thr(Bu^t)-Sar-(Me)Leu-Val-(Me)Leu-Ala-D-Ala-(Me)Leu-(Me)Val-OBu^t	52%
Z-Hyp(Bu^t)-Abu-Sar-(Me)Leu-Val-(Me)Leu-Ala-D-Ala-(Me)Leu-(Me)Leu-(Me)Val-OBu^t	96%

Same assay, conditions: coupling step; run 1

Substance	step yield
Z-(Me)Leu-Val-(Me)Leu-Ala-D-Ala-(Me)Leu-(Me)Leu(Me)Val-OBu^t	27%

Same assay, conditions: coupling step; run 2

Substance	step yield
Z-(Me)Leu-Val-(Me)Leu-Ala-D-Ala-(Me)Leu-(Me)Leu(Me)Val-OBu^t	94%

Same assay, conditions: late stage modification step

Substance	step yield
Z-Hyp-Nle-Sar-(Me)Leu-Val-(Me)Leu-Ala-D-Ala-(Me)Leu-(Me)Leu-(Me)Val-OH	77%
H-Sar-(Me)Leu-Val-(Me)Leu-Ala-D-Ala-(Me)Leu-(Me)Leu-(Me)Val-OBu^t	97%
H-(Me)Ser-Nva-Sar-(Me)Leu-Val-(Me)Leu-Ala-D-Ala-(Me)Leu-(Me)Leu-(Me)Val-OH	83%
Z-(Me)Ser-Abu-Sar-(Me)Leu-Val-(Me)Leu-Ala-D-Ala-(Me)Leu-(Me)Leu-(Me)Val-OH	79%
H-Nva-Sar-(Me)Leu-Val-(Me)Leu-Ala-D-Ala-(Me)Leu-(Me)Leu-(Me)Val-OBu^t	94%
H-D-Ala-(Me)Leu-(Me)Leu-(Me)Val-OBu^t	93%
Z-(Me)Thr-Nle-Sar-(Me)Leu-Val-(Me)Leu-Ala-D-Ala-(Me)Leu-(Me)Leu-(Me)Val-OH	60%
Z-(Me)Thr-Nva-Sar-(Me)Leu-Val-(Me)Leu-Ala-D-Ala-(Me)Leu-(Me)Leu-(Me)Val-OH	68%
Z-(Me)Ser-Nva-Sar-(Me)Leu-Val-(Me)Leu-Ala-D-Ala-(Me)Leu-(Me)Leu-(Me)Val-OH	60%
H-(Me)Ser-Abu-Sar-(Me)Leu-Val-(Me)Leu-Ala-D-Ala-(Me)Leu-(Me)Leu-(Me)Val-OH	96%
H-Thr(Bu^t)-Sar-(Me)Leu-Val-(Me)Leu-L-Ala-D-Ala-(Me)Leu-(Me)Leu-(Me)Val-OBu^t	88%
H-Hyp-Abu-Sar-(Me)Leu-Val-(Me)Leu-Ala-D-Ala-(Me)Leu-(Me)Leu-(Me)Val-OH	96%
Z-Hyp(Bu^t)-Nle-Sar-(Me)Leu-Val-(Me)Leu-Ala-D-Ala-(Me)Leu-(Me)Leu-(Me)Val-OBu^t	94%
H-(Me)Ser-Nle-Sar-(Me)Leu-Val-(Me)Leu-Ala-D-Ala-(Me)Leu-(Me)Leu-(Me)Val-OH	81%
Z-Hyp-Abu-Sar-(Me)Leu-Val-(Me)Leu-Ala-D-Ala-(Me)Leu-(Me)Leu-(Me)Val-OH	65%
H-(Me)Thr-Nva-Sar-(Me)Leu-Val-(Me)Leu-Ala-D-Ala-(Me)Leu-(Me)Leu-(Me)Val-OH	88%
Z-(Me)Ser-Thr-Sar-(Me)Leu-Val-(Me)Leu-Ala-D-Ala-(Me)Leu-(Me)Leu-(Me)Val-OH	50%
H-Nle-Sar-(Me)Leu-Val-(Me)Leu-Ala-D-Ala-(Me)Leu-(Me)Leu-(Me)Val-OBu^t	95%
H-Val-(Me)Leu-Ala-D-Ala-(Me)Leu-(Me)Leu-(Me)Leu-(Me)Val-OBu^t	93%
H-(Me)Thr-Abu-Sar-(Me)Leu-Val-(Me)Leu-Ala-D-Ala-(Me)Leu-(Me)Leu-(Me)Val-OH	94%
Z-(Val-(Me)Leu-Ala-D-Ala-(Me)Leu-(Me)Leu-(Me)Val-OBu^t	94%
H-(Me)Ser-Thr-Sar-(Me)Leu-Val-(Me)Leu-Ala-D-Ala-(Me)Leu-(Me)Leu-(Me)Val-OH	95%
Boc-Dab(Fmoc)-Abu-Sar-(Me)Leu-Val-(Me)Leu-Ala-D-Ala-(Me)Leu-(Me)Leu-(Me)Val-OBu^t	95%
H-(Me)Thr-Nle-Sar-(Me)Leu-Val-(Me)Leu-Ala-D-Ala-(Me)Leu-(Me)Leu-(Me)Val-OH	89%

Same assay, conditions: late stage modification step, TFA

Substance	step yield
H-Dab(Fmoc)-Abu-Sar-(Me)Leu-Val-(Me)Leu-Ala-D-Ala-(Me)Leu-(Me)Leu-(Me)Val-OH.TFA	100%
